Measured data: PubChem BioAssay AID1053208 (Peter MacCallum Cancer Centre, 2014)
Assay: 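Genes whose silencing cuts survival of bone tumour cells only with doxorubicin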 (primary screen). Cells: mouse osteosarcoma cells, early-passage culture from an engineered mouse model of fibroblastic bone tumour. Reagent: siRNA pool against mouse genes, 40 nM. Timing: about 120 h (48 h before drug, then 72 h with drug). Conditions: doxorubicin 100 nM for 72 h, roughly 30-40% inhibitory dose. Read-out: 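Luminescent ATP signal taken as viability with or without 100 nM doxorubicin for 72 h; mean of two wells set against non-targeting siRNA and turned into robust z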. Direction: viability z-score with doxorubicin: higher = more viable cells under doxorubicin; viability z-score without drug: higher = more viable cells with knock-down alone. Call rule: 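a pool counts as active when its viability z-score with doxorubicin is -2 or below and its z-score without drug lies between -2 and 2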.
The deposit covers about 17,000 reagents; shown is an unselected part. Of all reagents, 788 (4.7%) are marked active. 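Calls rest on z-score classes alone; an extra cut-off of viability at most 70% of control was not applied to them.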 Not all columns of the deposit are shown.

With Cox6a2 (cytochrome c oxidase subunit 6A2), how do the results read?
combined z-score class: no change with or without drug; viability z-score with doxorubicin: -0.22; viability z-score without drug: 0.51; outcome: inactive

For Ccl6 (C-C motif chemokine ligand 6), what does the deposit list?
combined z-score class: no change with or without drug; viability z-score with doxorubicin: -0.56; viability z-score without drug: -0.51; outcome: inactive

With Srsf12 (serine and arginine-rich splicing factor 12), what was measured?
combined z-score class: no change with or without drug; viability z-score with doxorubicin: -0.22; viability z-score without drug: 0.67; outcome: inactive

How did the screen score 9930111J21Rik2 (RIKEN cDNA 9930111J21 gene 2)?
combined z-score class: high cell count with and without drug; viability z-score with doxorubicin: 2.92; viability z-score without drug: 2.87; outcome: inactive

For Cacnb3 (calcium channel, voltage-dependent, beta 3 subunit), what does the deposit list?
combined z-score class: no change with or without drug; viability z-score with doxorubicin: -0.22; viability z-score without drug: -0.51; outcome: inactive

With Nudt12 (nudix hydrolase 12), how do the results read?
combined z-score class: no change with or without drug; viability z-score with doxorubicin: -1.24; viability z-score without drug: -1.01; outcome: inactive

For Adcy4 (adenylate cyclase 4), what was measured?
combined z-score class: no change with or without drug; viability z-score with doxorubicin: 0.22; viability z-score without drug: 0.67; outcome: inactive

For Astn1 (astrotactin 1), what was measured?
combined z-score class: no change with or without drug; viability z-score with doxorubicin: -0.22; viability z-score without drug: -0.17; outcome: inactive

What did the screen give for Mrgprx3-ps (MAS-related GPR, member X3, pseudogene)?
combined z-score class: no change with or without drug; viability z-score with doxorubicin: -1.8; viability z-score without drug: 0.34; outcome: inactive

With Homer3 (homer scaffolding protein 3), how do the results read?
combined z-score class: no change with or without drug; viability z-score with doxorubicin: 0.22; viability z-score without drug: 0.84; outcome: inactive

What did the screen give for Rin2 (Ras and Rab interactor 2)?
combined z-score class: no change with or without drug; viability z-score with doxorubicin: 1.8; viability z-score without drug: 0.84; outcome: inactive

For Or5p1 (olfactory receptor family 5 subfamily P member 1), what was measured?
combined z-score class: no change with or without drug; viability z-score with doxorubicin: 0.67; viability z-score without drug: 1.01; outcome: inactive

Which result is listed for Gpr45 (G protein-coupled receptor 45)?
combined z-score class: no change with or without drug; viability z-score with doxorubicin: -0.11; viability z-score without drug: 1.18; outcome: inactive

What did the screen give for Apoc3 (apolipoprotein C-III)?
combined z-score class: no change with or without drug; viability z-score with doxorubicin: 0.34; viability z-score without drug: 0.51; outcome: inactive

What is on record for Pdia3 (protein disulfide isomerase associated 3)?
combined z-score class: no change with or without drug; viability z-score with doxorubicin: -0.9; viability z-score without drug: -0.17; outcome: inactive

With Hexb (hexosaminidase B), what was measured?
combined z-score class: no change with or without drug; viability z-score with doxorubicin: -0.45; viability z-score without drug: -0.17; outcome: inactive

How did the screen score Dlk2 (delta like non-canonical Notch ligand 2)?
combined z-score class: low cell count with doxorubicin only; viability z-score with doxorubicin: -2.25; viability z-score without drug: -1.35; outcome: active

What did the screen give for Rpl13 (ribosomal protein L13)?
combined z-score class: low cell count with and without drug; viability z-score with doxorubicin: -8.09; viability z-score without drug: -7.25; outcome: inactive

What is on record for Fam114a1 (family with sequence similarity 114, member A1)?
combined z-score class: no change with or without drug; viability z-score with doxorubicin: -0.56; viability z-score without drug: -1.18; outcome: inactive

For Slc26a8, how do the results read?
combined z-score class: no change with or without drug; viability z-score with doxorubicin: 1.12; viability z-score without drug: 1.52; outcome: inactive

With Rap1b (RAS related protein 1b), what was measured?
combined z-score class: no change with or without drug; viability z-score with doxorubicin: 0.9; viability z-score without drug: 1.18; outcome: inactive

What is on record for Itpr2 (inositol 1,4,5-triphosphate receptor 2)?
combined z-score class: no change with or without drug; viability z-score with doxorubicin: 0.22; viability z-score without drug: -0.34; outcome: inactive

What did the screen give for Kpna3 (karyopherin subunit alpha 3)?
combined z-score class: no change with or without drug; viability z-score with doxorubicin: 0; viability z-score without drug: -1.35; outcome: inactive

What did the screen give for Sacs (sacsin)?
combined z-score class: no change with or without drug; viability z-score with doxorubicin: -0.11; viability z-score without drug: 1.35; outcome: inactive

For Ppnr (per-pentamer repeat gene), what does the deposit list?
combined z-score class: no change with or without drug; viability z-score with doxorubicin: -1.8; viability z-score without drug: 0.67; outcome: inactive

What is on record for Mettl14 (methyltransferase 14, N6-adenosine-methyltransferase subunit)?
combined z-score class: no change with or without drug; viability z-score with doxorubicin: 0.34; viability z-score without drug: 0.84; outcome: inactive

With Slc35g3, what was measured?
combined z-score class: no change with or without drug; viability z-score with doxorubicin: 0; viability z-score without drug: 0.84; outcome: inactive

With St3gal4 (ST3 beta-galactoside alpha-2,3-sialyltransferase 4), how do the results read?
combined z-score class: no change with or without drug; viability z-score with doxorubicin: -1.8; viability z-score without drug: -0.17; outcome: inactive
